# Reference: article PMC7819943, “Rice protein-binding microarrays: a tool to detect cis-acting elements near promoter regions in rice”
# Some of the results follow.
# Biological target: T1, OsSMF1 (Oryza sativa, UniProt Q6ZLB0 1-436)
# T1 sequence: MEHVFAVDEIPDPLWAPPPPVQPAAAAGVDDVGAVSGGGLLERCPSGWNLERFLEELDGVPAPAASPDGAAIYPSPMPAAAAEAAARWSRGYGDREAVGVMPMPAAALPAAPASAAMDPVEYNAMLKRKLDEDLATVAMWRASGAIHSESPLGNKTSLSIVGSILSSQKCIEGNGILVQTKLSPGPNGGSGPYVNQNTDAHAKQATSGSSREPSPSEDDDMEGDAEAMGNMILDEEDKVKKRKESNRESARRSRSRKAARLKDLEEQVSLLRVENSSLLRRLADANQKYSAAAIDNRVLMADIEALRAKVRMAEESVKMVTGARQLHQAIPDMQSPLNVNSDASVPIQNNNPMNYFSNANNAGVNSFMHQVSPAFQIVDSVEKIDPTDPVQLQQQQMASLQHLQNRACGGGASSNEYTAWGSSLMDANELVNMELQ
# Assay: protein-binding microarray (RPBM); PBS, 2% BSA, 51.3 ng/ul salmon testes DNA, 50 uM zinc acetate, 200 nM TF, 25 C, 1 h; high values mean tight binding
# Conditions: protein: recombinant; tags: N-terminal polyhistidine and DsRed monomer fusion (pET32a); chain copies: 2; label: CyDye5-dUTP incorporated in the synthesized complementary strand; 3' TTTTT single-stranded linker to array surface; dsDNA, one strand shown
# Summary of the method: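 The binding signal is fluorescence intensity per feature, in arbitrary units, read on an Axon 4000B scanner. Polyhistidine- and DsRed-tagged transcription factors (N-terminal fusions) from E. coli BL21-CodonPlus were purified on Ni–NTA and applied at 200 nM for 1 h at 25 °C to a double-stranded, BSA-blocked custom Agilent array in buffer with 50 µM zinc acetate.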
row,Sequence,binding signal
1,TCGACACCAATGCCCACGCCTAGCCGCTGCTGGTTCGCCACGGAGTCACCTAGTGCAG,3220 fluorescence intensity (a.u.)
2,GCAACGGGGTGCGCTGTGGTGGGGACACGTGGCGGCGTGCCGGAGTCACCTAGTGCAG,16000 fluorescence intensity (a.u.)
3,CGAGCAACACCAGTCACCAGCATCATCGGTGAGCATGGGTCGGAGTCACCTAGTGCAG,4210 fluorescence intensity (a.u.)
4,GTGCATCCAACGGTCATTATTAAATTGATGACGTGGCGCACGGAGTCACCTAGTGCAG,27900 fluorescence intensity (a.u.)
5,GGCGCTGGAGGTGGCGCGAGGGCGATGGGACGCGTGGCTCCGGAGTCACCTAGTGCAG,3470 fluorescence intensity (a.u.)
6,GCTTGCGCCAAAACCAAACATAGAGCAGCAATAGAGAGGACGGAGTCACCTAGTGCAG,3610 fluorescence intensity (a.u.)
7,CGCGCCGAATGACGATCGATCGACGCGCACGCAACCGGCCCGGAGTCACCTAGTGCAG,3930 fluorescence intensity (a.u.)
8,GCAACCGCTTCACGTGGCCTGATCCTCCTCCGGAGCTCTCCGGAGTCACCTAGTGCAG,19500 fluorescence intensity (a.u.)
9,AAACATAATGAAAATACACGTTGAAACATATGGCTATCACCGGAGTCACCTAGTGCAG,3350 fluorescence intensity (a.u.)
10,GTCCTCGGCCAGGGTGACGTGGGCCAGGGTCCACAGCTCCCGGAGTCACCTAGTGCAG,8740 fluorescence intensity (a.u.)
11,GTAGAGTGTAGTTTCTATTGTGATGTCTTATTGACATGGCCGGAGTCACCTAGTGCAG,3790 fluorescence intensity (a.u.)
12,TCGCCGAGCCTCCGGGTGTGTCCTCCCTACACGTCCGCCTCGGAGTCACCTAGTGCAG,3660 fluorescence intensity (a.u.)
13,GGATAAGCCTATCAGACTAATCTGACTCACAGACGTTTAACGGAGTCACCTAGTGCAG,3580 fluorescence intensity (a.u.)
14,AATGTTAAGTGGTCATCTGTTCGTCCTAGTATTGTTGTTGCGGAGTCACCTAGTGCAG,3840 fluorescence intensity (a.u.)
15,GTTTTGGAGGGCGGTTTTGCTGACGTGGCGCTGACATGGCCGGAGTCACCTAGTGCAG,32800 fluorescence intensity (a.u.)
16,CTAACGTACGTTCAGTGTACTAGGTAGATTTTCATCCAAACGGAGTCACCTAGTGCAG,23500 fluorescence intensity (a.u.)
17,TTTTAATGAATAGAATGCTAACTCAGCTCCACGTAAACCACGGAGTCACCTAGTGCAG,9650 fluorescence intensity (a.u.)
18,CGTGAGGTGAGCTTGAGGTGGTGAGCTGGTGCGAGCGAAACGGAGTCACCTAGTGCAG,4800 fluorescence intensity (a.u.)
19,TGTTGGTGGTGAGGTGTGAGGTGAGGTGGGGTGGTGTGGCCGGAGTCACCTAGTGCAG,3380 fluorescence intensity (a.u.)
20,TTATATTTTAATTAAAACTATTATAATACACAATACGTCACGGAGTCACCTAGTGCAG,7060 fluorescence intensity (a.u.)
21,TGGTCGTAGATCAGGCGTCCTACCTCCCATTCTGTACAGACGGAGTCACCTAGTGCAG,23800 fluorescence intensity (a.u.)

# 3 records picked at random from the list so far:
row,Sequence,binding signal
13,GGATAAGCCTATCAGACTAATCTGACTCACAGACGTTTAACGGAGTCACCTAGTGCAG,3580 fluorescence intensity (a.u.)
2,GCAACGGGGTGCGCTGTGGTGGGGACACGTGGCGGCGTGCCGGAGTCACCTAGTGCAG,16000 fluorescence intensity (a.u.)
4,GTGCATCCAACGGTCATTATTAAATTGATGACGTGGCGCACGGAGTCACCTAGTGCAG,27900 fluorescence intensity (a.u.)

# Going on with the list.

row,Sequence,binding signal
1,CATGGTATTGTTTGATGCCAACTGAATTGATACAATGTGACGGAGTCACCTAGTGCAG,20500 fluorescence intensity (a.u.)
2,TTTAGTGGCAGTCTTATAATAACGATTCAAAATAGTGGCACGGAGTCACCTAGTGCAG,3190 fluorescence intensity (a.u.)
3,CTTGCGGGCGTCGTCGTAGCGTGGTAGGAGTAGGGGAGCCCGGAGTCACCTAGTGCAG,4020 fluorescence intensity (a.u.)
4,ATGTTTCACTAGTTTATTTGTAAATATTGCACATGTGTTGCGGAGTCACCTAGTGCAG,3440 fluorescence intensity (a.u.)
5,CCGCCGTCCGCCGCCATCCTCGGTGCCGCCGTGGCCTGTGCGGAGTCACCTAGTGCAG,4430 fluorescence intensity (a.u.)
6,CAGCCGTTCGATCGCGTTCCTGACGTCCACGGTCAAACTCCGGAGTCACCTAGTGCAG,4080 fluorescence intensity (a.u.)
7,CCAAGCAAGCATACAGAGAGCAATAAAAGTATAAAACACACGGAGTCACCTAGTGCAG,4950 fluorescence intensity (a.u.)
8,CAAGAGGCGCCGGCATCTCGTGCCCGCGTGGCCTCTTCCTCGGAGTCACCTAGTGCAG,3440 fluorescence intensity (a.u.)
9,CTCCCAATGCACAACTTAATAGTGTCTAGTGCATAGGTTCCGGAGTCACCTAGTGCAG,3710 fluorescence intensity (a.u.)
10,ACCGATGCCGACGTGCCATCCCTTTGTATCATTTCATTTCCGGAGTCACCTAGTGCAG,6270 fluorescence intensity (a.u.)
11,GGCTATGCAGGAGTAGGGTCGTGACGGTTCACATGCTTCTCGGAGTCACCTAGTGCAG,3320 fluorescence intensity (a.u.)
12,ATAGATTATGTACCTGTGAGATGATTGGAGTGGGGCCATACGGAGTCACCTAGTGCAG,3460 fluorescence intensity (a.u.)
13,TACTCGCAACCGTGGCGGCCACGCCGGCGATTGCACCCGCCGGAGTCACCTAGTGCAG,3420 fluorescence intensity (a.u.)
14,TTAATTTAGATTGTATAAGTGTGCGTAGGCTATGACTTGTCGGAGTCACCTAGTGCAG,4370 fluorescence intensity (a.u.)
15,ATTGTTGACACTATGACTTTCTTACTTTGACCGCAATTTTCGGAGTCACCTAGTGCAG,3720 fluorescence intensity (a.u.)
16,CTAGCCAGCCTAGCAACGTGTCATCAGAGGAAAGAAGTCGCGGAGTCACCTAGTGCAG,4160 fluorescence intensity (a.u.)
17,CCGTTTGCCACGTCAGCTTGCCGCTCCAAAGGTGGGCGGCCGGAGTCACCTAGTGCAG,18800 fluorescence intensity (a.u.)
18,CTCCACCACACATGCTTCAAGTGACTAGGAGGGCATCCTCCGGAGTCACCTAGTGCAG,4410 fluorescence intensity (a.u.)
19,CGGCGCAGATCCGGCGAGCGGCGGCGGCGGAAGCTGATGGCGGAGTCACCTAGTGCAG,39900 fluorescence intensity (a.u.)
20,CTCCAGTGTGCTCGGGGCGTTCTTCCATGTCAGTGCGATCCGGAGTCACCTAGTGCAG,3710 fluorescence intensity (a.u.)
21,CCTGATCCAGTACTGTTAAACACCAAGATAGATATATAGACGGAGTCACCTAGTGCAG,12200 fluorescence intensity (a.u.)
